Substrate in this test: PIF conjugated to agarose resin (PIF-resin affinity column)
Put plainly: affinity purification with mass spectrometry; only the target purified.

Results are given in words; binding and its absence hold for the method and conditions named. Binding seen in cells or lysates may run through a third protein. A yes stands for co-enrichment or nearness to the bait. Other partners may have been found.

B1: 14-3-3 protein gamma (protein, UniProt P61982 1-247)
chain: MVDREQLVQKARLAEQAERYDDMAAAMKNVTELNEPLSNEERNLLSVAYKNVVGARRSSWRVISSIEQKTSADGNEKKIEMVRAYREKIEKELEAVCQDVLSLLDNYLIKNCSETQYESKVFYLKMKGDYYRYLAEVATGEKRATVVESSEKAYSEAHEISKEHMQPTHPIRLGLALNYSVFYYEIQNAPEQACHLAKTAFDDAIAELDTLNEDSYKDSTLIMQLLRDNLTLWTSDQQDDDGGEGNN
Regarding B1, the binding entry is on record as “binds”.

(Values after article PMC4077574.)
